From the supplement of paper PMC12067093, “Discovery and optimisation of a covalent ligand for TRIM25 and its application to targeted protein ubiquitination” (Chemical Science, 2025)
Some of the results follow.

The chains behind the UniProt entries cited, without tags or fusion partners. Where a name states a change or a piece, a line headed by the entry shows the natural chain unless it says otherwise.
UniProt Q5VZL5: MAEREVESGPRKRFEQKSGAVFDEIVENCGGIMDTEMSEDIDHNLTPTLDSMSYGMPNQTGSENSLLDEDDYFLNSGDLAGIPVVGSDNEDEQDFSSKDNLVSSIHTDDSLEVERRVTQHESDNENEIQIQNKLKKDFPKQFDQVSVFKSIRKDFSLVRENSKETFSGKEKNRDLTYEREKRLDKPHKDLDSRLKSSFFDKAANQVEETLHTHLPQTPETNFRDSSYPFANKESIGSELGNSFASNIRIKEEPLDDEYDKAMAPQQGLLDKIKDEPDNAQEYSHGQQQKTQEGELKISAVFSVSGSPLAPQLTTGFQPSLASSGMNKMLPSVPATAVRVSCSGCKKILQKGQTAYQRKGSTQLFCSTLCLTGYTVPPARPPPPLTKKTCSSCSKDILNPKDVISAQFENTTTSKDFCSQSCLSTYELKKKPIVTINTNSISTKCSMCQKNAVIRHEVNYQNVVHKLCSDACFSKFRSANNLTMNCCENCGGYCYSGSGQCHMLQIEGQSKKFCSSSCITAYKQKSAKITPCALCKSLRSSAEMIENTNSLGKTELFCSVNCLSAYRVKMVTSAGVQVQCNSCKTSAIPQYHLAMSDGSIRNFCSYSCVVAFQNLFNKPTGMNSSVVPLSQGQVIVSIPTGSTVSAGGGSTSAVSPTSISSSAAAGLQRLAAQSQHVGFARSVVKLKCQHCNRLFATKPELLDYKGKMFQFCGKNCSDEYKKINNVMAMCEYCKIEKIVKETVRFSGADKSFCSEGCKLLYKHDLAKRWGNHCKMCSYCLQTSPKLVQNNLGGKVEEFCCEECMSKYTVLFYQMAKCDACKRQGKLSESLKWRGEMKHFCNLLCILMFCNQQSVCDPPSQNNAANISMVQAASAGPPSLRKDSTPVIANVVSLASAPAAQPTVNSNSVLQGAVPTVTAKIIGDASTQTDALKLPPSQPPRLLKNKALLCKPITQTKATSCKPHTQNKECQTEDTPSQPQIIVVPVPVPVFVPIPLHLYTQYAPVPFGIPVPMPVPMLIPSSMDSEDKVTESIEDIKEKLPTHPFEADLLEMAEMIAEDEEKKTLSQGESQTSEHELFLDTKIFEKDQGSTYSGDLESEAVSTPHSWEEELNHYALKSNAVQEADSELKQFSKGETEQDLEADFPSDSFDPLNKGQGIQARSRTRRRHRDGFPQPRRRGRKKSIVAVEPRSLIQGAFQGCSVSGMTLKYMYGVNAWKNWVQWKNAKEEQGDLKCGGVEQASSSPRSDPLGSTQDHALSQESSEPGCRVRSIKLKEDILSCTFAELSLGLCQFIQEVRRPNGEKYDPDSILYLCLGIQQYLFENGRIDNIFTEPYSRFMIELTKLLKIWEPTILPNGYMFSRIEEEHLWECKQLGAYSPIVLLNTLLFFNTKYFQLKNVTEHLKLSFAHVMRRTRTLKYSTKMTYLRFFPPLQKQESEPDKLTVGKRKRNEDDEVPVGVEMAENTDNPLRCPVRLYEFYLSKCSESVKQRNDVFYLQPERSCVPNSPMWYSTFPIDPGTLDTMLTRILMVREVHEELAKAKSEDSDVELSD
UniProt O75362: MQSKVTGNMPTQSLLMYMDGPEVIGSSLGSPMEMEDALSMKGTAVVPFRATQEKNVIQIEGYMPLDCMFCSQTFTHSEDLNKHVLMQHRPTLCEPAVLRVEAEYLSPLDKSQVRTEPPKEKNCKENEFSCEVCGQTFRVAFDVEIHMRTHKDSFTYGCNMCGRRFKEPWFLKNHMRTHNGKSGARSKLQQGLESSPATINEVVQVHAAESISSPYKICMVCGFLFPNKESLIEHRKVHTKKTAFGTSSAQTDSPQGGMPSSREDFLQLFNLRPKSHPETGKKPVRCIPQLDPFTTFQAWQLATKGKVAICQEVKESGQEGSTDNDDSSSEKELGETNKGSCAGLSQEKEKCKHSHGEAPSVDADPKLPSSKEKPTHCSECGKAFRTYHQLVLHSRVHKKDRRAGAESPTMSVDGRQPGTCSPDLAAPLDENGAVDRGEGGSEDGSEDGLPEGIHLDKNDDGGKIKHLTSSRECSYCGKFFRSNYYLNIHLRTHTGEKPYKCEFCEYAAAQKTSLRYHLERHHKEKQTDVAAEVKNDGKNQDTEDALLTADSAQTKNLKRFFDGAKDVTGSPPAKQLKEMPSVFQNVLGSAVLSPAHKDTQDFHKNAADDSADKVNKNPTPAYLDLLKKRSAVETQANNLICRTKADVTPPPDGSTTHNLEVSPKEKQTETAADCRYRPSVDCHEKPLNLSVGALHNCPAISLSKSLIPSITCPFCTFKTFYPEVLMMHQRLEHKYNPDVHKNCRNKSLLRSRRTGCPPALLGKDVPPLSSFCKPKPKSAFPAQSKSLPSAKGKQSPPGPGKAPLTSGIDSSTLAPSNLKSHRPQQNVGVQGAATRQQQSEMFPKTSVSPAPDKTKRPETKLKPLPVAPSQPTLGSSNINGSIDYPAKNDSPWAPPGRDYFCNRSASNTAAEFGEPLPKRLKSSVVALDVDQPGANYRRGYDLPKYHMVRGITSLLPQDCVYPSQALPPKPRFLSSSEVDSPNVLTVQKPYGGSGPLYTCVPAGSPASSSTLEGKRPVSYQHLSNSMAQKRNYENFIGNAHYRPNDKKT
UniProt O95159: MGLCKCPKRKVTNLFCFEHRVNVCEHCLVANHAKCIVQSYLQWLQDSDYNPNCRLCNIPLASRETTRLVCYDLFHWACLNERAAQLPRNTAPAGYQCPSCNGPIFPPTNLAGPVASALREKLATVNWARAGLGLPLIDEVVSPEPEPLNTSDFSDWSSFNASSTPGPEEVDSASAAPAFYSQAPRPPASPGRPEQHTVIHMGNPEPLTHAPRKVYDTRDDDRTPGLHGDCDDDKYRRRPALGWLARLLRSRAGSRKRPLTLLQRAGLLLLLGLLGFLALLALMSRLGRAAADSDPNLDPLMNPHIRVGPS
UniProt Q9Y3S2: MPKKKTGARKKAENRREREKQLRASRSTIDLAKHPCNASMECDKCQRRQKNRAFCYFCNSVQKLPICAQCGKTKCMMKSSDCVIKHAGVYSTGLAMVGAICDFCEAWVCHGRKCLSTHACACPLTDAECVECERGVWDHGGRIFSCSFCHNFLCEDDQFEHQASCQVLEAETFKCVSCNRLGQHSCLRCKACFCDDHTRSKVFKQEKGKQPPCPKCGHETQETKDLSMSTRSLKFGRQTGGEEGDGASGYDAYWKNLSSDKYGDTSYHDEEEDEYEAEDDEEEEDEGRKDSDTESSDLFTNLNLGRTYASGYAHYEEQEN
UniProt Q9NRM2: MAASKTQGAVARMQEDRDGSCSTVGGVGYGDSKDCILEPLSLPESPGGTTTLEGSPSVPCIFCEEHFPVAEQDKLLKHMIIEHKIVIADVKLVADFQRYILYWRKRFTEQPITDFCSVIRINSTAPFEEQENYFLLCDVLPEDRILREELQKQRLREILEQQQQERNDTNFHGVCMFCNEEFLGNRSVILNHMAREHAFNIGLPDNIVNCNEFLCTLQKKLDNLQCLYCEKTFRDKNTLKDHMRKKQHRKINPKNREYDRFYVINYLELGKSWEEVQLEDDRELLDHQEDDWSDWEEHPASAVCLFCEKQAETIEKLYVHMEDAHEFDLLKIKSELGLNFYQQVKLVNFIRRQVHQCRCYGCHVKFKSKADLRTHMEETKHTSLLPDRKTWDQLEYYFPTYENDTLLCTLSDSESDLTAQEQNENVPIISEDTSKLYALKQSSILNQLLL
UniProt Q15326: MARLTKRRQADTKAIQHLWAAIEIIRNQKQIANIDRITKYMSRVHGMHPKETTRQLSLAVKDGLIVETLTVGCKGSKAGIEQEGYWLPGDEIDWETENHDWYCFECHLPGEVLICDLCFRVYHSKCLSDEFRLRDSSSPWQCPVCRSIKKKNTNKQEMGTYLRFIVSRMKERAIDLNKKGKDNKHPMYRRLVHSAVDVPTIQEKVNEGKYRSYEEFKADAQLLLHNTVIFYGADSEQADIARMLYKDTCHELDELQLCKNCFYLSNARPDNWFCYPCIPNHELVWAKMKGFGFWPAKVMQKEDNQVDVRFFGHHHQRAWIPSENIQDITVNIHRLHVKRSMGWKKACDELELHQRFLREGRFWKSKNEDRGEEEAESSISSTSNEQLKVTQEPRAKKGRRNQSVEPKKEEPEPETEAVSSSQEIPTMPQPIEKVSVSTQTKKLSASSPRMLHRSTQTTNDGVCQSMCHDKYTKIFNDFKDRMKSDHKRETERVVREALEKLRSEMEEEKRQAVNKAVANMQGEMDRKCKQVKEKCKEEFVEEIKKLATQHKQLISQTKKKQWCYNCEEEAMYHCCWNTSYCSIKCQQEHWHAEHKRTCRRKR
UniProt Q5VUA4: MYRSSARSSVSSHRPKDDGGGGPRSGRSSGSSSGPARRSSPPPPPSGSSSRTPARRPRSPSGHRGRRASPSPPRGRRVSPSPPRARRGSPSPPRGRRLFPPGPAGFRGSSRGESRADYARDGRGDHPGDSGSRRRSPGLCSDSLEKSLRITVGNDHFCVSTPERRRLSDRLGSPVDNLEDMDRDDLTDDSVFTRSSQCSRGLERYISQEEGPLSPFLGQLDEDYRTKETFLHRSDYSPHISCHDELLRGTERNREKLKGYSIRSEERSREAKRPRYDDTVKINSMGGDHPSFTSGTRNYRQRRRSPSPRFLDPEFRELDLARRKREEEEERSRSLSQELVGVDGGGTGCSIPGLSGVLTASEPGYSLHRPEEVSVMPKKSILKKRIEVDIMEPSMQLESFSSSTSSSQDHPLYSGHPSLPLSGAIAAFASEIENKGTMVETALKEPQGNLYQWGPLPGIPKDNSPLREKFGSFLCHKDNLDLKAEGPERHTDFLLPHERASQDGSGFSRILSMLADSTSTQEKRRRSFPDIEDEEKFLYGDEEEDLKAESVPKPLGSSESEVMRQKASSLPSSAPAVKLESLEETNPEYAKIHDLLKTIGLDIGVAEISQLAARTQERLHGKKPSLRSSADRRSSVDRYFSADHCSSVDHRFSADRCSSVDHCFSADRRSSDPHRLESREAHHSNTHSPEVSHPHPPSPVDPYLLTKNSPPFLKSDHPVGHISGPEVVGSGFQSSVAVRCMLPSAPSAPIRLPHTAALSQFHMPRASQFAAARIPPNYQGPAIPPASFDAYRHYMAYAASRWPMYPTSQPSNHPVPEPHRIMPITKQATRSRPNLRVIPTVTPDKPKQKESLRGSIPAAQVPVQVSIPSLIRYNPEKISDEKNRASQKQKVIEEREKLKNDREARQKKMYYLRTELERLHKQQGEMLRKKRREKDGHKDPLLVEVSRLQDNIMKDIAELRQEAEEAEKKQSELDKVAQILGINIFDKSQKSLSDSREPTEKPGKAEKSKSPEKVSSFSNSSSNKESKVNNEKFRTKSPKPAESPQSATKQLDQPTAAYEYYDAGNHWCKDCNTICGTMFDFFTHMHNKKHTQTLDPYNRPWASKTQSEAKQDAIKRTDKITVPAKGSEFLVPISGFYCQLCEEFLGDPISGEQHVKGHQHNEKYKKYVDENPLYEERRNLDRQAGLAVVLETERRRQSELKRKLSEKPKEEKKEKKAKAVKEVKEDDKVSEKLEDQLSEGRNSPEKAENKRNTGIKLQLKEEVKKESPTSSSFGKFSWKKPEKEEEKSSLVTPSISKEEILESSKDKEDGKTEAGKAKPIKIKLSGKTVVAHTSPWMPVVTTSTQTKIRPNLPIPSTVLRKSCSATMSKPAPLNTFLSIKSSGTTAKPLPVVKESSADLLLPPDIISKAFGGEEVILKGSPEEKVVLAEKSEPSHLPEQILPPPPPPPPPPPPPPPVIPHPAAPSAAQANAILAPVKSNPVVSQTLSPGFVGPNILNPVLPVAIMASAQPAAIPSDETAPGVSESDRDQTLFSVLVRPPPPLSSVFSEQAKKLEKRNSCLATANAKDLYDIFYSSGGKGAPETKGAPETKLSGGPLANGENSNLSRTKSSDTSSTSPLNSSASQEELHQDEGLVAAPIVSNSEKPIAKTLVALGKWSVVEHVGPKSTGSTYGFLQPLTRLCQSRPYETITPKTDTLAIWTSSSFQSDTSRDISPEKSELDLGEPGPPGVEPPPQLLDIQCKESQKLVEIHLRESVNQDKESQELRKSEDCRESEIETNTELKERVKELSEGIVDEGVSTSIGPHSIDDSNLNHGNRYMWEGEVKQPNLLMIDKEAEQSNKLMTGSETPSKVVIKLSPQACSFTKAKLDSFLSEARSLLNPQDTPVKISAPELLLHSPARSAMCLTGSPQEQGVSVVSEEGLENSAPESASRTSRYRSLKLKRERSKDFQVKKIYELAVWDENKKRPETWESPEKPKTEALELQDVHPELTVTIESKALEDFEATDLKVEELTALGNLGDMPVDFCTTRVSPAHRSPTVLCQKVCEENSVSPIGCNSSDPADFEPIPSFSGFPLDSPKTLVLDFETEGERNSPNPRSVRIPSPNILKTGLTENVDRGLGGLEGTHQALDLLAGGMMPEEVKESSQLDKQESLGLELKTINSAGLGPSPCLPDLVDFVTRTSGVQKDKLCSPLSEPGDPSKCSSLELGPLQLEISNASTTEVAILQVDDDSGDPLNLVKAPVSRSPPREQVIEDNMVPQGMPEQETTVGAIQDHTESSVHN

Compound: CC1Cc2ccccc2N1C(=O)C1CCCN(C1)C(=O)CCl (mixture of isomers) [TRIM25 ligand 11 (diastereomer mixture)]
Assay: probe-labelled cysteine peptide fold change vs DMSO (competition) (log2 fold change); higher = less target engagement (more negative = stronger competition)
Details: THP-1, incubation time: 4 h
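Note: competitive chemoproteomic profiling in live THP-1 cells with an iodoacetamide desthiobiotin (IA-DTB) probe, comparing probe-labelled peptide intensities in compound-treated cells against DMSO-treated controls.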

ZNF667_Q5HYK9_146_GHSGKKPLKCNDCGK (UniProt Q5HYK9)
probe-labelled cysteine peptide fold change (10 µM): 0.00135 | probe-labelled cysteine peptide fold change (50 µM): 0.108

ZNF618_Q5T7W0_100_DGTSDVPAEICVVIGGVR (UniProt Q5T7W0)
probe-labelled cysteine peptide fold change (10 µM): 0.0259 | probe-labelled cysteine peptide fold change (50 µM): -0.199

ZMYM3_Q14202_1326_SCIAESPLWYSVIPMDR (UniProt Q14202)
probe-labelled cysteine peptide fold change (10 µM): 0.00722 | probe-labelled cysteine peptide fold change (50 µM): 0.0429

ZMYM4_Q5VZL5_948_ALLCKPITQTK (UniProt Q5VZL5)
probe-labelled cysteine peptide fold change (10 µM): -0.151 | probe-labelled cysteine peptide fold change (50 µM): -0.293

ZNF574_Q6ZN55_656_CAAAAAQAPR (UniProt Q6ZN55)
probe-labelled cysteine peptide fold change (10 µM): 0.0507 | probe-labelled cysteine peptide fold change (50 µM): -0.0462

ZMYM3_Q14202_1073_CWVQSK (UniProt Q14202)
probe-labelled cysteine peptide fold change (10 µM): -0.101 | probe-labelled cysteine peptide fold change (50 µM): -0.0709

ZNF131_P52739_9_MEAEETMECLQEFPEHHK (UniProt P52739)
probe-labelled cysteine peptide fold change (10 µM): -0.0981 | probe-labelled cysteine peptide fold change (50 µM): -0.376

ZNF579_Q8NAF0_74_LSHSGLRPHACPLCPK (UniProt Q8NAF0)
probe-labelled cysteine peptide fold change (10 µM): 0.113 | probe-labelled cysteine peptide fold change (50 µM): 0.269

ZNF644_Q9H582_450_HLNVPRPYACR (UniProt Q9H582)
probe-labelled cysteine peptide fold change (10 µM): 0.113 | probe-labelled cysteine peptide fold change (50 µM): 0.386

ZNF217_O75362_286_CIPQLDPFTTFQAWQLATK (UniProt O75362)
probe-labelled cysteine peptide fold change (10 µM): -0.073 | probe-labelled cysteine peptide fold change (50 µM): -0.231

ZMYM4_Q5VZL5_690_CQHCNR (UniProt Q5VZL5)
probe-labelled cysteine peptide fold change (10 µM): 0.455 | probe-labelled cysteine peptide fold change (50 µM): 0.332

ZNF316_A6NFI3_861_CADCGR (UniProt A6NFI3)
probe-labelled cysteine peptide fold change (10 µM): 0.139 | probe-labelled cysteine peptide fold change (50 µM): 0.163

ZFAND2B_Q8WV99_134_HRHPLDHDCSGEGHPTSR (UniProt Q8WV99)
probe-labelled cysteine peptide fold change (10 µM): -0.252 | probe-labelled cysteine peptide fold change (50 µM): 0.202

ZFYVE27_Q5T4F4_353_RYPTNNFGNCTGCSATFSVLK (UniProt Q5T4F4)
probe-labelled cysteine peptide fold change (10 µM): -0.247 | probe-labelled cysteine peptide fold change (50 µM): -0.0647

ZKSCAN1_P17029_63_FCYQNTFGPR (UniProt P17029)
probe-labelled cysteine peptide fold change (10 µM): 0.113 | probe-labelled cysteine peptide fold change (50 µM): -0.0953

ZNF644_Q9H582_202_KLPTSASVGCDIQNSVGSNIK (UniProt Q9H582)
probe-labelled cysteine peptide fold change (10 µM): -0.0287 | probe-labelled cysteine peptide fold change (50 µM): -0.187

ZFPL1_O95159_70_LVCYDLFHWACLNER (UniProt O95159)
probe-labelled cysteine peptide fold change (10 µM): 0.038 | probe-labelled cysteine peptide fold change (50 µM): 0.00577

ZMYM3_Q14202_1106_IKEDILACSAAELNYGLAQFVR (UniProt Q14202)
probe-labelled cysteine peptide fold change (10 µM): 0.0186 | probe-labelled cysteine peptide fold change (50 µM): -0.0446

ZNF384_Q8TF68_408_CHNCHR (UniProt Q8TF68)
probe-labelled cysteine peptide fold change (10 µM): -0.00024 | probe-labelled cysteine peptide fold change (50 µM): 0.0311

ZNF217_O75362_641_SAVETQANNLICR (UniProt O75362)
probe-labelled cysteine peptide fold change (10 µM): -0.011 | probe-labelled cysteine peptide fold change (50 µM): -0.196

ZFPL1_O95159_16_KVTNLFCFEHR (UniProt O95159)
probe-labelled cysteine peptide fold change (10 µM): -0.108 | probe-labelled cysteine peptide fold change (50 µM): -0.0733

ZNF598_Q86UK7_122_CPELPPFSLFGDLEQHMR (UniProt Q86UK7)
probe-labelled cysteine peptide fold change (10 µM): -0.126 | probe-labelled cysteine peptide fold change (50 µM): -0.139

ZFC3H1_O60293_1141_TMEVKPCPFRPYHSPLLVFK (UniProt O60293)
probe-labelled cysteine peptide fold change (10 µM): -0.0675 | probe-labelled cysteine peptide fold change (50 µM): -0.197

ZNF618_Q5T7W0_668_SMHEVIELLNVCEDLAGSTGLAK (UniProt Q5T7W0)
probe-labelled cysteine peptide fold change (10 µM): 0.204 | probe-labelled cysteine peptide fold change (50 µM): 0.0317

ZNF512B_Q96KM6_6_TDPFCVGGR (UniProt Q96KM6)
probe-labelled cysteine peptide fold change (10 µM): -0.0302 | probe-labelled cysteine peptide fold change (50 µM): 0.313

ZFR_Q96KR1_974_RVFECISSGIILK (UniProt Q96KR1)
probe-labelled cysteine peptide fold change (10 µM): -0.34 | probe-labelled cysteine peptide fold change (50 µM): 0.174

ZNF330_Q9Y3S2_82_SSDCVIK (UniProt Q9Y3S2)
probe-labelled cysteine peptide fold change (10 µM): -0.00147 | probe-labelled cysteine peptide fold change (50 µM): -0.0344

ZNF207_O43670_54_LYTGPGLAIHCMQVHK (UniProt O43670)
probe-labelled cysteine peptide fold change (10 µM): 0.011 | probe-labelled cysteine peptide fold change (50 µM): 0.179

ZFP41_Q8N8Y5_154_AFNCGSNLLK (UniProt Q8N8Y5)
probe-labelled cysteine peptide fold change (10 µM): -0.095 | probe-labelled cysteine peptide fold change (50 µM): -0.149

ZNF330_Q9Y3S2_67+70_LPICAQCGK (UniProt Q9Y3S2)
probe-labelled cysteine peptide fold change (10 µM): -0.0921 | probe-labelled cysteine peptide fold change (50 µM): -0.0418

ZNF638_Q14966_1077_QNPQNIGDHMLTCSLSPK (UniProt Q14966)
probe-labelled cysteine peptide fold change (10 µM): -0.104 | probe-labelled cysteine peptide fold change (50 µM): -0.439

ZMYM3_Q14202_747_HFCNQQCLLR (UniProt Q14202)
probe-labelled cysteine peptide fold change (10 µM): 0.0965 | probe-labelled cysteine peptide fold change (50 µM): 0.162

ZNF319_Q9P2F9_307_ESSELLQHPCTPSGERPFR (UniProt Q9P2F9)
probe-labelled cysteine peptide fold change (10 µM): -0.102 | probe-labelled cysteine peptide fold change (50 µM): -0.0637

ZNF512_Q96ME7_430_AHLGSCTLGNFVAGK (UniProt Q96ME7)
probe-labelled cysteine peptide fold change (10 µM): -0.0498 | probe-labelled cysteine peptide fold change (50 µM): -0.00274

ZNF579_Q8NAF0_250_AHPCLRPEGEQEGEGGPPPRPK (UniProt Q8NAF0)
probe-labelled cysteine peptide fold change (10 µM): 0.0265 | probe-labelled cysteine peptide fold change (50 µM): 0.00891

ZMYM1_Q5SVZ6_532_EYQFCDGAVSDDLSIHSK (UniProt Q5SVZ6)
probe-labelled cysteine peptide fold change (10 µM): -0.2 | probe-labelled cysteine peptide fold change (50 µM): -0.342

ZNF277_Q9NRM2_137_INSTAPFEEQENYFLLCDVLPEDR (UniProt Q9NRM2)
probe-labelled cysteine peptide fold change (10 µM): -0.0488 | probe-labelled cysteine peptide fold change (50 µM): 0.293

ZFC3H1_O60293_241_QIQLELECINKDEK (UniProt O60293)
probe-labelled cysteine peptide fold change (10 µM): -0.184 | probe-labelled cysteine peptide fold change (50 µM): -0.442

ZMIZ1_Q9ULJ6_763_HVQCFDLESYLQLNCER (UniProt Q9ULJ6)
probe-labelled cysteine peptide fold change (10 µM): 0.0282 | probe-labelled cysteine peptide fold change (50 µM): 0.043

ZNF691_Q5VV52_230_THLEPAPYICCECGK (UniProt Q5VV52)
probe-labelled cysteine peptide fold change (10 µM): -0.272 | probe-labelled cysteine peptide fold change (50 µM): -0.8

ZMYND8_Q9ULU4_130_LTSEPEGDWFCPECEK (UniProt Q9ULU4)
probe-labelled cysteine peptide fold change (10 µM): -0.0508 | probe-labelled cysteine peptide fold change (50 µM): -0.0488

ZMIZ2_Q8NF64_418_SPFLPDLKPNLNSLHSSPSGSGPCDELR (UniProt Q8NF64)
probe-labelled cysteine peptide fold change (10 µM): 0.0184 | probe-labelled cysteine peptide fold change (50 µM): -0.465

ZMYND8_Q9ULU4_94_NDFYCWVCHR (UniProt Q9ULU4)
probe-labelled cysteine peptide fold change (10 µM): 0.0533 | probe-labelled cysteine peptide fold change (50 µM): 0.134

ZMYND11_Q15326_249+258_DTCHELDELQLCK (UniProt Q15326)
probe-labelled cysteine peptide fold change (10 µM): 0.155 | probe-labelled cysteine peptide fold change (50 µM): 0.191

ZNF592_Q92610_353_SICSDSSSK (UniProt Q92610)
probe-labelled cysteine peptide fold change (10 µM): -0.0742 | probe-labelled cysteine peptide fold change (50 µM): -0.0643

ZFYVE21_Q9BQ24_99_QCAECALVSLK (UniProt Q9BQ24)
probe-labelled cysteine peptide fold change (10 µM): -0.0829 | probe-labelled cysteine peptide fold change (50 µM): -0.0315

ZNF318_Q5VUA4_1740_SELDLGEPGPPGVEPPPQLLDIQCK (UniProt Q5VUA4)
probe-labelled cysteine peptide fold change (10 µM): 0.0837 | probe-labelled cysteine peptide fold change (50 µM): -0.104

ZMYM3_Q14202_968_ASSDLCDLVSNQSAEGLLEDCDLFGPAR (UniProt Q14202)
probe-labelled cysteine peptide fold change (10 µM): 0.0145 | probe-labelled cysteine peptide fold change (50 µM): -0.207

ZNF106_Q9H2Y7_1238_EISDSCPVYPVITAR (UniProt Q9H2Y7)
probe-labelled cysteine peptide fold change (10 µM): 0.142 | probe-labelled cysteine peptide fold change (50 µM): -0.124

ZNF551_Q7Z340_340_HECGECR (UniProt Q7Z340)
probe-labelled cysteine peptide fold change (10 µM): 0.121 | probe-labelled cysteine peptide fold change (50 µM): 0.42

ZFPL1_O95159_35_CIVQSYLQWLQDSDYNPNCR (UniProt O95159)
probe-labelled cysteine peptide fold change (10 µM): -0.0311 | probe-labelled cysteine peptide fold change (50 µM): 0.0264

ZNF687_Q8N1G0_91_NTVCPEQSEALAGGSAGDGAQAAGVTK (UniProt Q8N1G0)
probe-labelled cysteine peptide fold change (10 µM): -0.0289 | probe-labelled cysteine peptide fold change (50 µM): -0.374

ZNF672_Q499Z4_204_VSDAHQCGVCGK (UniProt Q499Z4)
probe-labelled cysteine peptide fold change (10 µM): -0.00755 | probe-labelled cysteine peptide fold change (50 µM): 0.0229

ZMYND8_Q9ULU4_103_EGQVLCCELCPR (UniProt Q9ULU4)
probe-labelled cysteine peptide fold change (10 µM): 0.179 | probe-labelled cysteine peptide fold change (50 µM): -0.0752

ZNF280C_Q8ND82_690_CDFLADSSGLDR (UniProt Q8ND82)
probe-labelled cysteine peptide fold change (10 µM): 0.0226 | probe-labelled cysteine peptide fold change (50 µM): -0.0202

ZNF280C_Q8ND82_94_CRDPPSNPVAASPR (UniProt Q8ND82)
probe-labelled cysteine peptide fold change (10 µM): -0.0425 | probe-labelled cysteine peptide fold change (50 µM): -0.104

ZNF408_Q9H9D4_685_CFVVPEEPDAAPSLVLIHK (UniProt Q9H9D4)
probe-labelled cysteine peptide fold change (10 µM): 0.161 | probe-labelled cysteine peptide fold change (50 µM): -0.309

ZMYND11_Q15326_126_CLSDEFR (UniProt Q15326)
probe-labelled cysteine peptide fold change (10 µM): 0.0207 | probe-labelled cysteine peptide fold change (50 µM): 0.0739

ZNF451_Q9Y4E5_476_TWFCECNQR (UniProt Q9Y4E5)
probe-labelled cysteine peptide fold change (10 µM): 0.206 | probe-labelled cysteine peptide fold change (50 µM): 0.141

ZFR_Q96KR1_340_ISCAGPQTYK (UniProt Q96KR1)
probe-labelled cysteine peptide fold change (10 µM): -0.248 | probe-labelled cysteine peptide fold change (50 µM): -0.091

ZNF496_Q96IT1_134_HCEDPVVIDDGDSPLDQEQEQLPVEPHSDLAK (UniProt Q96IT1)
probe-labelled cysteine peptide fold change (10 µM): -0.186 | probe-labelled cysteine peptide fold change (50 µM): -0.0772

ZNF267_Q14586_218_NYHCNNSEK (UniProt Q14586)
probe-labelled cysteine peptide fold change (10 µM): -0.0919 | probe-labelled cysteine peptide fold change (50 µM): -0.0633

ZNF106_Q9H2Y7_1620_VLCLHSR (UniProt Q9H2Y7)
probe-labelled cysteine peptide fold change (10 µM): 0.00393 | probe-labelled cysteine peptide fold change (50 µM): 0.119

ZNF106_Q9H2Y7_1853_NCDAFFTAR (UniProt Q9H2Y7)
probe-labelled cysteine peptide fold change (10 µM): 0.0391 | probe-labelled cysteine peptide fold change (50 µM): -0.0457

ZFYVE16_Q7Z3T8_863_QPGVEGLCSK (UniProt Q7Z3T8)
probe-labelled cysteine peptide fold change (10 µM): -0.128 | probe-labelled cysteine peptide fold change (50 µM): -0.174

ZNF318_Q5VUA4_1071_DCNTICGTMFDFFTHMHNK (UniProt Q5VUA4)
probe-labelled cysteine peptide fold change (10 µM): -0.124 | probe-labelled cysteine peptide fold change (50 µM): 0.0115

ZNF296_Q8WUU4_117_CLQTFPLEAITAFMDHK (UniProt Q8WUU4)
probe-labelled cysteine peptide fold change (10 µM): -0.0315 | probe-labelled cysteine peptide fold change (50 µM): -0.109
